Results published in PubChem BioAssay AID2685 (National Center for Advancing Translational Sciences (NCATS), 2010).
Some of the results follow. The main result of the screen is listed elsewhere. These columns were measured beside it and carry no call. Compounds called inactive in the main read-out are mostly missing here. Potencies come from curve fits of mixed quality, noted in brackets.

Assay: qHTS Assay for Lipid Storage Modulators in Drosophila S3 Cells;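 as to cell number change: cells counted by Cell Tracker Red CMTPX staining in the red channel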
Settings: BODIPY lipid droplet fluorescence, 18-24 h; for cell number change: measured here: cell count max response, cells fed with added oleic acid
Summary of the method: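 Laser-scanning cytometry quantifies lipid droplet accumulation (500–530 nm total intensity; droplet/cell object ratio) in oleic acid-fed (400 uM added) Drosophila S3 cells treated with a concentration series. 20 uM Triacsin C defined 100% inhibition.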

[1] = measured here: lipid fluorescence (Fed channel) AC50, cells fed with added oleic acid
[2] = measured here: cell number channel AC50, cells fed with added oleic acid

Compound | cell number change | AC50 [1] | AC50 [2]
Cc1ccc(/C=N/N2C(=S)SC(C)(C)C2N(O)C(=O)Nc2ccc([N+](=O)[O-])cc2)cc1 (centres undefined) | -20.5% | 14.6 µM [falling, partial curve, poor fit] | 
CN(C)C=NC(=O)c1cc(C(=O)c2ccc(F)cc2)c[nH]1 | -41.7% | 0.231 µM [falling, full curve] | 0.231 µM [falling, full curve]
O=C(CCCN1C(=O)/C(=C/c2cccc(Br)c2)SC1=S)Nc1cccnc1 | -14.8% |  | 
CC(=O)N1CCCc2cc(S(=O)(=O)CCC(=O)N3CCN(c4cccc(C)c4)C(C)C3)ccc21 (centres undefined) | 12.4% |  | 0.0231 µM [rising, full curve, poor fit]
CCn1cc(CN2CCCC(C(=O)Nc3cccc(-n4cccn4)c3)C2)c(C)n1 (centres undefined) | 6.93% |  | 6.51 µM [rising, single point]
CC(C(=O)N1CCOCC1)N1C(=O)c2cccc3cccc(c23)C1=O (centres undefined) | -21.7% | 2.59 µM [falling, partial curve] | 2.06 µM [falling, single point]
Cc1cc(NC(=O)CSc2nnc(-c3ccccc3C)n2C)no1 | 6.08% | 29.1 µM [falling, single point] | 
Cc1c(N2C(=O)C3C4C=CC(C5CC45)C3C2=O)c(=O)n(-c2ccccc2)n1C (centres undefined) | 28.3% | 4.11 µM [falling, single point] | 
COc1ccc(S(=O)(=O)N2CCN(C(=O)c3ccc(C)o3)CC2)cc1 | 3.81% |  | 
C=CCn1c(COc2ccc(OC)cc2)nnc1SC(C)C(=O)NC1CC1 (centres undefined) | -15.2% |  | 
CC1(C)Cc2c(sc(NC(=O)C(=O)NCCCN3CCOCC3)c2C#N)CO1 | -5.01% | 0.58 µM [rising, single point] | 
Cc1ccc(-n2c(SCn3nnc4ccccc4c3=O)nnc2-c2cccnc2)c(C)c1 | -25% | 0.0184 µM [rising, full curve, poor fit] | 
COc1ccc(CNC(=O)[C@@H](C)NC(=O)C2CCN(C(=O)[C@@H](N)CCSC)CC2)cc1 | 28.1% | 29.1 µM [rising, single point] | 
Cc1cccc(NC(=O)c2ccc3nc(N4CCOCC4)sc3c2)c1C | -25.4% | 6.51 µM [rising, single point] | 
Cc1cc(C)c(C(=O)COC(=O)c2cccnc2Cl)c(C)c1 | -25.2% |  | 
O=C(COc1ccc(Cl)cc1)NCc1nnc2c3ccccc3c(-c3ccccc3)nn12 | -25.5% | 29.1 µM [falling, single point] | 
Nc1ccc(S(=O)(=O)Nc2nccc(/C=C/c3ccc(Cl)cc3)n2)cc1 | 66.7% | 29.1 µM [rising, single point] | 14.6 µM [rising, partial curve, poor fit]
CC(/C=C/c1ccco1)=N\NC(=O)c1cccnc1 | 9.25% |  | 
Fc1ccc2[nH]c3c(NCc4ccccc4)ncnc3c2c1 | -64.6% | 13 µM [falling, partial curve, poor fit] | 18.4 µM [falling, partial curve]
Cc1cccc(NC(=O)CSc2nnc(-c3ccncc3)n2CC2CCCO2)c1 (centres undefined) | 21.7% |  | 

Compound | cell number change | AC50 [1] | AC50 [2]
CCOC(=O)c1nc(C)n(-c2ccc([N+](=O)[O-])cc2)n1 | 11.3% | 0.517 µM [falling, full curve, poor fit] | 
Cc1cccc(NS(=O)(=O)c2cccc(C(=O)N3CCC3)c2)c1 | -4.38% | 0.13 µM [rising, full curve, poor fit] | 
COC(=O)c1ccc2c(=O)n(C3CCCCC3)c(SCC#N)nc2c1 | 17.7% | 0.58 µM [rising, single point] | 
Cc1c(Br)cc(C(=O)N2CCN(CCO)CC2)c(C)c1C | -12.9% | 14.6 µM [falling, partial curve, poor fit] | 
Cn1c(=O)n(Cc2ccc(Cl)cc2)c2ccccc21 | 37.4% | 4.11 µM [rising, single point] | 7.31 µM [rising, partial curve, poor fit]
CNc1nc(Cl)nc(Nc2ccccc2)n1 | 23.5% | 5.8 µM [rising, single point] | 2.59 µM [rising, single point]
COc1cccc(-c2cc(C(=O)NN3CCOCC3)c3ccccc3n2)c1 | 1.57% | 29.1 µM [falling, single point] | 
CCN(CC1COc2ccccc2O1)C(=S)NCCCN(C)C (centres undefined) | -3.65% | 29.1 µM [falling, single point] | 0.092 µM [falling, full curve, poor fit]
O=C(NC1=NCCS1)c1sc2ccccc2c1Cl |  | 0.461 µM [rising, single point] | 
COc1cc(C(=O)NCCc2ccc(S(=O)(=O)N3CCCC3)cc2)cc(OC)c1OC | -5.87% | 3.66 µM [falling, full curve, poor fit] | 
COc1ccccc1S(=O)(=O)Cc1ccc(C(=O)NCc2cccnc2)o1 | -7.29% | 0.058 µM [rising, full curve] | 
CN(C)c1ccc(CN2CCCC(O)C2)cc1 (centres undefined) | 6.19% |  | 
Fc1ccc(CN2CCCCCCC2)cc1 | -52.7% | 16.4 µM [falling, partial curve] | 16.4 µM [falling, partial curve]
CC(C)(C)OC(=O)N/N=C/c1ccc(Br)cc1 | -36.5% | 29.1 µM [falling, single point] | 
Cn1nnnc1SCC(=O)Nc1cccc([N+](=O)[O-])c1 |  | 20.6 µM [rising, single point] | 
CCOc1ccc(NCC(=O)Nc2ccc(C)cc2C)cc1 | 6.55% | 1.3 µM [rising, full curve] | 
O=C(COc1ccc(Cl)cc1Cl)N/N=C/c1cccnc1 | -42.3% |  | 
CC(=O)Nc1ccc(NC(=O)COC(=O)c2cc(S(=O)(=O)N(C)C)ccc2N2CCCC2)cc1 |  | 29.1 µM [rising, single point] | 
COc1ccc(CNc2ncccc2[N+](=O)[O-])cc1 |  | 29.1 µM [rising, single point] | 

3 compounds from above, arranged by molar mass, rising.
Compound | cell number change | AC50 [1] | AC50 [2]
CCN(CC1COc2ccccc2O1)C(=S)NCCCN(C)C (centres undefined) | -3.65% | 29.1 µM [falling, single point] | 0.092 µM [falling, full curve, poor fit]
COc1cccc(-c2cc(C(=O)NN3CCOCC3)c3ccccc3n2)c1 | 1.57% | 29.1 µM [falling, single point] | 
COc1ccccc1S(=O)(=O)Cc1ccc(C(=O)NCc2cccnc2)o1 | -7.29% | 0.058 µM [rising, full curve] | 
